# According to PubChem BioAssay AID493014 (National Center for Advancing Translational Sciences (NCATS), 2011):
# In all, about 340,000 compounds went through this assay and about 170 (0.05%) were called active. The shares of active, inactive and inconclusive entries below differ from those in the screen. Calls come from the whole dose curve; as a rule, active = well fitted inhibition curve with a large enough effect in the signal ratio, with a control signal flat (not every such curve was filed as active); inconclusive = small, poorly fitted or top-dose-only effect, or effect the other way, or a change in a side signal; inactive = flat fitted curve, though single readings scatter; the % refers to the signal ratio. Potencies of inconclusive entries are doubtful fits and often do not repeat.
# Test: qHTS Assay to Find Inhibitors of Chronic Active B-Cell Receptor Signaling;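 for activity change, negative = inhibition: plate controls were basal doxycycline-induced cells for no effect and cells given 10 µM MG132 for full effect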
# Conditions: ABC-DLBCL IkBa-CBG/CBR reporter, luminescence ratio (green luciferase fused to IkBa over red control in TMD8 lymphoma cells), 4 h; activity change, negative = inhibition: at 46.1 µM (top of the series)
# Procedure, shortened: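 Compounds up to 46 uM were incubated four hours with TMD8 cells whose green CBG68 luciferase is fused to IkappaBalpha; red CBR luminescence normalised the signal, and concentration-effect curves were fitted to fusion, red and ratio data.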
# Potency is the fitted concentration of half-maximal effect.
SMILES,"activity change, negative = inhibition",Potency
Cc1ccc(NC(=O)Nc2cnccn2)cc1C,inconclusive: -1.37%,
COc1cc(/C=N/Nc2nc3ccccc3s2)ccc1OC(=O)c1ccccc1F,inconclusive: 7.31%,
Cc1ccc(S(=O)(=O)Nc2nc(C)cc(NN)n2)cc1,inconclusive: 11.6%,
COc1ccc2c(c1)CC(C)C/C2=N\NC(=O)c1ccco1 (stereo not given),,"inconclusive: 25.1 µM [falling, single point]"
CCOC(=O)c1cnc(-c2cccc(OC)c2)[nH]c1=O,,"inconclusive: 29.1 µM [falling, single point]"
CC(C)=CCc1c2c(c3occ(-c4ccc(O)cc4)c(=O)c3c1O)C=CC(C)(C)O2,,"inconclusive: 20 µM [rising, single point]"
CCn1cnc2cc(NC(=O)c3cccs3)ccc21,,"inconclusive: 35.5 µM [rising, single point]"
c1ccc(NCc2nc(-c3ccccc3)no2)cc1,,"inconclusive: 18.4 µM [falling, single point]"
COCCNc1oc(-c2ccc(F)cc2)nc1C#N,,"inconclusive: 14.1 µM [rising, partial curve, poor fit]"
COc1ccccc1P(=O)(Cc1ccccc1[N+](=O)[O-])c1ccccc1 (stereo not given),inactive,
CC1CCN(c2ccc(-c3cccc(NC(=O)C(F)(F)F)c3)nn2)CC1,,"inconclusive: 5.62 µM [rising, single point]"
COc1cc(NC(=O)CNC(=O)Cn2c(C)cc3ccccc3c2=O)cc(OC)c1OC,inactive,
CC1CCCC(C)N1C(=C(Cl)Cl)C(=C1SCCS1)[N+](=O)[O-] (stereo not given),,"inconclusive: 22.4 µM [rising, single point]"
Cc1ccc(N2CCN(S(=O)(=O)c3cc(C(=O)Nc4cc(Cl)cc(Cl)c4)ccc3F)CC2C)cc1 (stereo not given),inactive,
COC(=O)[C@@H](NC(=O)/C=C/c1ccc(OC)cc1)C(C)C,,"inconclusive: 31.6 µM [rising, partial curve]"
O=C(N/N=C/C(Cl)=C/c1ccc([N+](=O)[O-])cc1)C(=O)Nc1ccc(C(=O)O)cc1,,"inconclusive: 0.794 µM [falling, full curve, poor fit]"
O=C(Nc1ccccc1Br)c1ccc(N2CCCC2=O)cc1,,"inconclusive: 29.1 µM [falling, single point]"
COc1ccc2oc(C(=O)OCC(=O)N(C)C3CCS(=O)(=O)C3)c(C)c2c1 (stereo not given),,"inconclusive: 23.1 µM [falling, partial curve]"
CN(C)C(CNc1ccc(C(N)=O)cc1[N+](=O)[O-])c1ccccc1 (stereo not given),,"inconclusive: 1.58 µM [falling, full curve]"
S=C(NC1CCCC1)N1CCN(c2ccc(Cl)cc2)CC1,inactive,
COc1cccc(NC(=O)CSc2nc3c([nH]c4ccccc43)c(=O)n2C)c1,inactive,
O=C(c1ccco1)N1N=C(c2ccc3nccnc3c2)CC1c1ccccc1 (stereo not given),inconclusive: -4.25%,
COc1ccc(Cc2n[nH]c(=S)n(N)c2=O)cc1,inactive,
Cc1cc(SCC(=O)c2ccc(O)c(O)c2)nc2ccccc12,,"inconclusive: 35.5 µM [falling, single point]"
Cc1nonc1NC(=O)CSc1nc2ccccc2cc1C#N,inconclusive: -17.9%,
CCOc1ccc(NC(=O)C2CC(=O)OC2c2ccccc2)cc1 (stereo not given),inconclusive: -1.93%,
Cc1ccsc1/C=N/NC(=O)c1ccc2c(c1)OCCO2,,"inconclusive: 35.5 µM [falling, partial curve]"

# Some values from the entries so far.
# CCOC(=O)c1cnc(-c2cccc(OC)c2)[nH]c1=O | Potency: inconclusive: 29.1 µM [falling, single point]
# CC1CCN(c2ccc(-c3cccc(NC(=O)C(F)(F)F)c3)nn2)CC1 | Potency: inconclusive: 5.62 µM [rising, single point]
# O=C(N/N=C/C(Cl)=C/c1ccc([N+](=O)[O-])cc1)C(=O)Nc1ccc(C(=O)O)cc1 | Potency: inconclusive: 0.794 µM [falling, full curve, poor fit]

# (more compounds)

SMILES,"activity change, negative = inhibition",Potency
CCN(C(=O)C(C)OC(=O)c1nn(-c2ccccc2C(F)(F)F)cc1O)c1ccccc1 (stereo not given),inactive,
CCOC(=O)CN1C(=O)N[C@H](c2ccc(Br)cc2)C(C(C)=O)=C1C,inactive,
CCN1CCCC1CNC(=O)C1CCN(Cc2nc(-c3cccc(Br)c3)oc2C)CC1 (stereo not given),,"inconclusive: 12.6 µM [falling, partial curve, poor fit]"
CC(C)N1C(=O)/C(=C\c2nc3ccccc3c(=O)n2-c2ccccc2)c2ccccc21,inconclusive: -15.7%,
COc1cc(C2C(C#N)=C(N)N(N(C)C)C3=C2C(=O)CC(C)(C)C3)ccc1O (stereo not given),inactive,
CCOc1cc(N2CCOCC2)c(OCC)cc1NC(=O)C1=COCCO1,inconclusive: -0.612%,
Cn1c(C(=O)N2CCC(C(=O)NCc3ccccc3)CC2)cc2sccc21,inactive,
COc1ccc(N2CCN(C(=O)CC34CC5CC(CC(C5)C3)C4)CC2)c([N+](=O)[O-])c1,inconclusive: 5.95%,
CCOc1ccc(CCNC(=O)COC(=O)c2nccnc2N)cc1OCC,,"inconclusive: 16.4 µM [falling, partial curve]"
COc1cc(/C=N/n2c(-c3ccccc3)n[nH]c2=S)ccc1O,inconclusive: 7.37%,
CN(C(=O)COc1ccc(Br)cc1Cl)C1CCCCC1,inconclusive: 11%,
Cc1cc(C(=O)Nc2ccc(C)c(C)c2)n(-c2ccccc2)n1,inconclusive: -12.8%,
CCCC(=O)N1CCN(c2ccc(NC(=O)c3ccccc3)cc2)CC1,inconclusive: -0.053%,
CC12CCC(C(=O)N(NC(=O)c3ccc(O)cc3)C1=O)C2(C)C (stereo not given),inconclusive: -0.17%,
CCc1nn(CC(=O)NCc2cccnc2)c(=O)c2cc3occc3n12,inconclusive: -14%,
COc1cc(C(=S)N2CCCCC2)ccc1OCC(=O)Nc1ccc(F)cc1,inconclusive: 1.66%,
N#Cc1ccc(NC(=S)Nc2ccccc2)cc1,inconclusive: 7.42%,
O=C(Nc1cccc(Cl)c1)c1ccc(F)c(S(=O)(=O)NCc2ccc3c(c2)OCO3)c1,inconclusive: -9.81%,
O=C(NCCc1cccs1)c1ccc(Cl)cc1,,"inconclusive: 20 µM [falling, partial curve]"
Cc1cccc(-c2nc3scc(CCNS(=O)(=O)c4ccc(Oc5ccccc5)cc4)n3n2)c1,inactive,
O=C(Nc1ccc(O)cc1)c1cc2ccccc2c(=O)s1,,"inconclusive: 10 µM [falling, partial curve, poor fit]"
CC(C)CCc1noc(CN2CCC(C(=O)N3CCOCC3)CC2)n1,inconclusive: 3.79%,
CCCCN(C(=S)Nc1cccc(SC)c1)C1CCN(C(C)=O)CC1,inconclusive: 10.5%,
CCC(=O)N1N=C(c2cccs2)CC1c1ccco1 (stereo not given),inactive,
O=c1oc(CCO)cc2ccc(-c3ccc4[nH]ccc4c3)cc12,,"inconclusive: 18.4 µM [falling, partial curve]"
COc1ccc2c(c1[N+](=O)[O-])CCC/C2=N/OC(=O)c1ccccc1SC,inconclusive: -0.0952%,
CN(Cc1ccccc1)C(=O)CCCn1c(=O)[nH]c2cc(Cl)ccc2c1=O,inconclusive: 11.5%,

SMILES,"activity change, negative = inhibition",Potency
COc1cc(OC)cc(C(=O)NCC(=O)OC(C)C(=O)NC(C)C2CC3CCC2C3)c1 (stereo not given),inconclusive: -2.7%,
CNC(=O)NC(=O)CSc1nnc(C(F)(F)F)n1C,inconclusive: 13.4%,
COc1ccc(OC)c(S(=O)(=O)N2CCN(C34CC5CC(CC(C5)C3)C4)CC2)c1,inconclusive: 22.4%,
Fc1ccccc1CSc1nc2ncccc2[nH]1,,"inconclusive: 4.61 µM [rising, full curve, poor fit]"
Cn1c(CNC(=O)C(Cc2ccccc2)NC(=O)c2ccccc2F)cc(=O)n(C)c1=O (stereo not given),inconclusive: 0.819%,
CCCc1nnc(NC(=O)CSc2nnc(-c3ccco3)n2C)s1,inconclusive: -0.469%,
O=C(COc1ccccc1F)Nc1ccccc1C(=O)NC1CC1,inconclusive: 0.505%,
CCOC(=O)C1C(=O)CC(C)(O)C(C(=O)OCC)C1c1ccc(OCC)cc1 (stereo not given),inconclusive: 7.54%,
COc1ccccc1NC(=O)CSc1nnc(-c2ccncc2)o1,,"inconclusive: 20.6 µM [falling, single point]"
CCCC(=O)n1nc(NCc2ccc(OC)cc2)nc1NCc1ccc(OC)cc1,,"inconclusive: 35.5 µM [falling, partial curve, poor fit]"
CCOC(=O)N1CCN(c2ccc(C(=O)c3ccccc3)cc2F)CC1,inconclusive: -11.8%,
O=C(Nc1cccnc1Cl)c1cc(-c2ccc(F)cc2)on1,inconclusive: -9.84%,
COc1ccc2c(C)cc(N3CCOCC3)nc2c1,,"inconclusive: 35.5 µM [falling, single point]"
CC(=O)c1cccc(S(=O)(=O)Nc2cccnc2)c1,inactive,
Cc1nc(NCc2ccco2)c2oc3ccccc3c2n1,inconclusive: 1.6%,
CCOc1ccc2nc(NC(=O)CSc3nc(-c4ccccc4)c(C#N)c(=O)[nH]3)sc2c1,,"inconclusive: 1.78 µM [rising, full curve, poor fit]"
COc1cc(/C=C2\SC(=Nc3ccccc3)NC2=O)cc(Cl)c1O,inconclusive: -3.65%,
CC(C)c1ccc(NC(=O)c2ccc3c(c2)CCN3S(C)(=O)=O)cc1,inactive,
Cc1c(Cl)cccc1NC(=O)CC1Sc2ccccc2NC1=O (stereo not given),inconclusive: -12.8%,
CCOC(=O)N1CCc2c(sc3ncn(C)c(=O)c23)C1,inconclusive: 3.37%,
COc1ccc(Nc2nnc(SCC(=O)c3cc4ccccc4o3)s2)cc1,inconclusive: -0.737%,
CC(C(=O)O)n1c2ccccc2c2cn[nH]c(=O)c21 (stereo not given),inconclusive: 1.27%,
Oc1cccc(C=NCc2ccccc2)c1,inconclusive: 15.6%,
CCOc1ccccc1NC(=O)CCN(c1ccc(C)cc1)S(=O)(=O)c1ccccc1,inconclusive: -6.13%,
CSC1=N/C(=C/c2cccnc2)C(=O)N1Cc1ccccc1,inconclusive: 11.4%,
O=C(/C=C/c1ccco1)Nc1ccc2c(c1)OCCO2,inconclusive: 403%,
